Results are given as percent effect. The controls that fix the scale are not given in the record; negative values are as filed. This is an unselected part of the compounds tested. A dash means the value is not listed here; it may have been measured.

Amino acid sequences for entries named in this document (tags omitted).
UniProt P9WNZ1, whole entry: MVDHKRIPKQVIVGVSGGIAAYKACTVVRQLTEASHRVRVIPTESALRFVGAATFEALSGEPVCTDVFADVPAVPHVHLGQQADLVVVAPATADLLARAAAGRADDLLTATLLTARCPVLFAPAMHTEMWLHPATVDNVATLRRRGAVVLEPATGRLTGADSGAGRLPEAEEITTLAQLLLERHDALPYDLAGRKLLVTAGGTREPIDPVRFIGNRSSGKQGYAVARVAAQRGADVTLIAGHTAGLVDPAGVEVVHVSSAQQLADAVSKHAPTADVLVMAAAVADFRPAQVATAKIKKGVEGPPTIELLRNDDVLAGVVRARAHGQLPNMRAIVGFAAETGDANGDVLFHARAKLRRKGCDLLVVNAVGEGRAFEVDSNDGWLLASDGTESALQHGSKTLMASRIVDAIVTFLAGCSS
UniProt P9WFT3, whole entry: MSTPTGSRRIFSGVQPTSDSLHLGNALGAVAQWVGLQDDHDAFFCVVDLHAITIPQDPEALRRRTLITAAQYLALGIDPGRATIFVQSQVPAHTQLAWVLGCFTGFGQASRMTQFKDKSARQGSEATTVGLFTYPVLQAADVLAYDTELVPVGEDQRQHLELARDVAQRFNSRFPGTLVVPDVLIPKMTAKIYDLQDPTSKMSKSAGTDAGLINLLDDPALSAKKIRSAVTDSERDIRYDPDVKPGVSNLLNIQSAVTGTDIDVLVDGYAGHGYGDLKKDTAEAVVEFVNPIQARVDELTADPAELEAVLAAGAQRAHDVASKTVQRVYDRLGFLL

CoaBC: 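Coenzyme A biosynthesis protein CoaBC, Mycobacterium tuberculosis (UniProt P9WNZ1). Enzyme assay of CoaBC with a phosphate dye (Biomol Green) read at 650 nm. Compounds at 30 µM. Direction is inferred from only a few compounds that gave an IC50; most scored high, so higher reads as stronger inhibition. Most strong results did not repeat in a second test. Of about 67,000 compounds tested this way, about 40 (0.06%) reached 50% or more in at least one test.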
MtTrpRS: 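Enzyme assay of tryptophanyl-tRNA synthetase; the read-out is not stated. Target: Tryptophan-tRNA ligase, Mycobacterium tuberculosis (UniProt P9WFT3). Concentration: 10 µM. Higher most likely means stronger inhibition; the record gives no direction and few retests gave an IC50. Of about 65,000 compounds tested this way, about 64 (0.098%) reached 50% or more in at least one test.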

| SMILES | CoaBC | MtTrpRS |
|---|---|---|
| `CC1CN(CC(=O)NCc2ccccn2)CCN1Cc1nccn1C` (configuration not stated) | 5.853 | 0.7741 |
| `CCN(CC1CCOCC1)C(=O)C1CC(=O)N(Cc2cccnc2)C1` (configuration not stated) | -0.1196 | -5.735 |
| `CCCc1nc(NCc2c(C)nn(CCC)c2C)c2cnn(C)c2n1` | 9.644 | 6.583 |
| `CC(C)(C)C(=O)NCCC(=O)NS(=O)(=O)c1cccc(C#N)c1` | -3.89 | -0.5623 |
| `COCCN1C[C@@H]2[C@@H](OC)CCN(S(=O)(=O)c3cccnc3)[C@@H]2C1` | 6 | -2.815 |
| `OC(CNCc1ccccc1C(F)(F)F)c1ccccc1` (configuration not stated) | -11 | -3.667 |
| `CC1CN(C(=O)Nc2ccc(Cl)c(C(=O)NC3CC3)c2)CC(C)(C)O1` (configuration not stated) | 0.2439 | -0.301 |
| `O=C(NCCn1ccnc1)c1ccn(-c2ccc(F)cc2)n1` | 1.695 | -2.77 |
| `O=C1CC(C(=O)Nc2nnc(-c3ccoc3)[nH]2)c2ccccc2N1` (configuration not stated) | 7.991 | -0.6717 |
| `CCOCc1nc2c(c(N(C)Cc3snnc3C)n1)CCNCC2` | 0.8526 | 2.004 |
| `Cc1ncccc1OC1(C(=O)NCCNc2ccccc2)CCNCC1` | -43.71 | -0.6966 |
| `O=C1CC2(CCN(C(=O)C3CCCCC3)C2)Nc2ccccc2N1` (configuration not stated) | 7.105 | -3.544 |
| `Cn1c(=O)[nH]c(=O)n2c(CC(=O)NCc3ccccc3)cnc12` | -6.579 | -3.198 |
| `Cc1noc(C)c1CN1CCOC2(CCCN(c3ncccn3)C2)C1` (configuration not stated) | 6.84 | -4.068 |
| `Cc1nc(C)n(CC2CCCN2Cc2ccn(-c3ccccc3)n2)n1` (configuration not stated) | 4.743 | -1.834 |
| `Cc1ccc([C@@H]2CN(C(=O)CCc3cc(Cl)no3)C[C@H]2N(C)C)cc1` | 0.7212 | -4.452 |
| `Cc1ccc(-n2cc(C(=O)NCC(C)Cn3cccn3)nn2)cc1` (configuration not stated) | 1.515 | -2.451 |
| `Cc1cccc(=O)n1CCC(=O)N(C)Cc1cccc2ncccc12` | 5.983 | -1.784 |
| `c1ccc(CN2Cc3[nH]nc(COc4cccnc4)c3C2)nc1` | 5.419 | 4.497 |
| `CCCN(C)C(=O)c1ccc2c(c1)[nH]c(=O)n2CCOCC` | 11.73 | 1.935 |
| `CNC(=O)CN1CCOC(c2cccc(N)n2)C1` (configuration not stated) | 4.988 | 0.8832 |
| `Cc1[nH]c2c(F)cccc2c1CC(=O)N1CCN(C2CCSCC2)CC1` | 4.348 | -0.8683 |
| `CC(=O)N1CCN(C(=O)NC(C)C)CC2(CNC(=O)C2)C1` (configuration not stated) | 0.5013 | -1.521 |
| `CCCn1ncc(CN2CCCC(C(=O)c3ccc(Cl)cc3C)C2)c1C` (configuration not stated) | 6.087 | -0.7236 |
| `Cc1ccc(C(=O)N2CC[C@H](Oc3cccnc3C)[C@@H](O)CC2)s1` | 1.456 | - |
| `O=C1NC[C@H]2CN(C3CCOCC3)CCN12` | 10.41 | -1.754 |
| `CCCc1cc(C(=O)NCCn2nc3ccccn3c2=O)[nH]n1` | 5.684 | 0.8244 |
| `CC(C)C(=O)N1CCN(C(=O)c2cc(C(C)C)no2)[C@H]2CS(=O)(=O)C[C@H]21` | -2.058 | 0.9331 |
| `CCC(O)(CNCc1ncc[nH]1)c1ccc(Br)cc1` (configuration not stated) | -10.77 | 1.941 |
| `CC(=O)N1CCN(C(=O)c2csc(-c3ccc(C)cc3C)n2)CC1` | 5.604 | 26.32 |
| `CN1CCN(c2cc(Sc3cccs3)nc(N)n2)CC1CCO` (configuration not stated) | -0.5981 | -0.2441 |
| `O=C(CCc1cscn1)N1CCC(C(=O)O)(c2ccccc2)CC1` | -3.212 | -0.2244 |
| `NC(=O)C1CCN(c2ncc(-c3cnccn3)c([C@H]3CCCO3)n2)CC1` | -0.1239 | - |
| `CCc1ccc(C2CCCCCN2C(=O)CNC(=O)C2CC2)o1` (configuration not stated) | -4.994 | 1.145 |
| `CC(C)c1nn(CC(=O)N2CCCC2)c(=O)c2c1cnn2C(C)(C)C` | 2.122 | 3.284 |
| `Cc1nc(CN2CCC3(CCCN(Cc4cnn(C)c4)C3)C2=O)cs1` (configuration not stated) | 2.157 | -3.673 |
| `Cc1nc(CN2C(=O)CC[C@@H]3[C@H]2CCN3C(=O)C2CCOCC2)cs1` | 4.822 | -4.362 |
| `c1cn(-c2cnc(C3CCCNC3)cn2)cn1` (configuration not stated) | -4.136 | 12.81 |
| `CCc1noc(CNc2ccc(C(=O)N3CCCC3)cc2C)n1` | 6.323 | 18.21 |
| `CC(C)c1cc(O)nc(C2CCCN2C(=O)C(C)(C)C)n1` (configuration not stated) | 15.09 | 15.13 |
| `Cc1oc(NC(=O)C(C)N2CCN(C(=O)C3CC3)CC2)c(C#N)c1C` (configuration not stated) | -7.983 | -0.1715 |
| `COCC(=O)Nc1ccc([C@@H](O)[C@H]2COCC(=O)N2CC(C)C)cc1` | -10.81 | 6.789 |
| `CC(C)CC(=O)N1CC(=O)c2sc(Nc3ccc(F)cc3F)nc2C1` | 4.699 | - |
| `c1cc(C2CCCN2Cc2nnnn2C2CC2)cs1` (configuration not stated) | -1.688 | -1.517 |
| `Cc1ccc(NC(=O)CC2Cn3ncnc3NC2=O)cc1C` (configuration not stated) | -1.579 | -1.296 |
| `CCc1n[nH]c(C2CN(Cc3nccn3CC)CCO2)n1` (configuration not stated) | 5.128 | 1.642 |

Data taken from ChEMBL document CHEMBL3988442, “University of Dundee, Small-Polar-MMV Screening Library” (2021).